Results: publication PMC10739863
Results are given in words; binding and its absence hold for the method and conditions named. Binding seen in cells or lysates may run through a third protein. Some binding calls cover weakened binding; strength is not graded here. For some of these results: Sequences can lack the tags named with a protein.

Protein sequences, listed by entry. Tags and fused reporters are not part of them.
UniProt P84022: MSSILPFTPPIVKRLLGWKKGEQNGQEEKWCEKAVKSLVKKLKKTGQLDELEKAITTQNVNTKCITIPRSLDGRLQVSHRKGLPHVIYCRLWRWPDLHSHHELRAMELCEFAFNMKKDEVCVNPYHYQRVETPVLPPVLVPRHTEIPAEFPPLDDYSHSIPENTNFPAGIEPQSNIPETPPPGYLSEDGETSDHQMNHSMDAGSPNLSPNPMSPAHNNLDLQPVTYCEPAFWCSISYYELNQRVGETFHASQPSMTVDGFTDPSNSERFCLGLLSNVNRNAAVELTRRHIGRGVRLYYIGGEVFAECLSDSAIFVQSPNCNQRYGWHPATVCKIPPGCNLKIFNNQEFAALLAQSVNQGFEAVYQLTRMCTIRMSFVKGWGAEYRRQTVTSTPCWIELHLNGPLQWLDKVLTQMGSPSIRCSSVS
UniProt Q15796: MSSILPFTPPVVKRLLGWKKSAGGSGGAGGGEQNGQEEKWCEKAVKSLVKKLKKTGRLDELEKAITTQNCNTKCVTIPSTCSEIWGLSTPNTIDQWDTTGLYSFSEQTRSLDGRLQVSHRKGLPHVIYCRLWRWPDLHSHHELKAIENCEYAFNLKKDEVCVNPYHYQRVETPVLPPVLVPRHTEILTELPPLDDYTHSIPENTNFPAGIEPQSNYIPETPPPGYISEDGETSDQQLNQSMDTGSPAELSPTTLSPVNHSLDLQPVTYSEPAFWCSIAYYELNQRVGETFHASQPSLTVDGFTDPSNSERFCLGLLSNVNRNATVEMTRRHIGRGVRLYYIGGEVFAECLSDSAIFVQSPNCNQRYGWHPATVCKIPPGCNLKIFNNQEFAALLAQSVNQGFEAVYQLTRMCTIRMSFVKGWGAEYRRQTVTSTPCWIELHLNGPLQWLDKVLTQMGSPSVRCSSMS
UniProt Q09472: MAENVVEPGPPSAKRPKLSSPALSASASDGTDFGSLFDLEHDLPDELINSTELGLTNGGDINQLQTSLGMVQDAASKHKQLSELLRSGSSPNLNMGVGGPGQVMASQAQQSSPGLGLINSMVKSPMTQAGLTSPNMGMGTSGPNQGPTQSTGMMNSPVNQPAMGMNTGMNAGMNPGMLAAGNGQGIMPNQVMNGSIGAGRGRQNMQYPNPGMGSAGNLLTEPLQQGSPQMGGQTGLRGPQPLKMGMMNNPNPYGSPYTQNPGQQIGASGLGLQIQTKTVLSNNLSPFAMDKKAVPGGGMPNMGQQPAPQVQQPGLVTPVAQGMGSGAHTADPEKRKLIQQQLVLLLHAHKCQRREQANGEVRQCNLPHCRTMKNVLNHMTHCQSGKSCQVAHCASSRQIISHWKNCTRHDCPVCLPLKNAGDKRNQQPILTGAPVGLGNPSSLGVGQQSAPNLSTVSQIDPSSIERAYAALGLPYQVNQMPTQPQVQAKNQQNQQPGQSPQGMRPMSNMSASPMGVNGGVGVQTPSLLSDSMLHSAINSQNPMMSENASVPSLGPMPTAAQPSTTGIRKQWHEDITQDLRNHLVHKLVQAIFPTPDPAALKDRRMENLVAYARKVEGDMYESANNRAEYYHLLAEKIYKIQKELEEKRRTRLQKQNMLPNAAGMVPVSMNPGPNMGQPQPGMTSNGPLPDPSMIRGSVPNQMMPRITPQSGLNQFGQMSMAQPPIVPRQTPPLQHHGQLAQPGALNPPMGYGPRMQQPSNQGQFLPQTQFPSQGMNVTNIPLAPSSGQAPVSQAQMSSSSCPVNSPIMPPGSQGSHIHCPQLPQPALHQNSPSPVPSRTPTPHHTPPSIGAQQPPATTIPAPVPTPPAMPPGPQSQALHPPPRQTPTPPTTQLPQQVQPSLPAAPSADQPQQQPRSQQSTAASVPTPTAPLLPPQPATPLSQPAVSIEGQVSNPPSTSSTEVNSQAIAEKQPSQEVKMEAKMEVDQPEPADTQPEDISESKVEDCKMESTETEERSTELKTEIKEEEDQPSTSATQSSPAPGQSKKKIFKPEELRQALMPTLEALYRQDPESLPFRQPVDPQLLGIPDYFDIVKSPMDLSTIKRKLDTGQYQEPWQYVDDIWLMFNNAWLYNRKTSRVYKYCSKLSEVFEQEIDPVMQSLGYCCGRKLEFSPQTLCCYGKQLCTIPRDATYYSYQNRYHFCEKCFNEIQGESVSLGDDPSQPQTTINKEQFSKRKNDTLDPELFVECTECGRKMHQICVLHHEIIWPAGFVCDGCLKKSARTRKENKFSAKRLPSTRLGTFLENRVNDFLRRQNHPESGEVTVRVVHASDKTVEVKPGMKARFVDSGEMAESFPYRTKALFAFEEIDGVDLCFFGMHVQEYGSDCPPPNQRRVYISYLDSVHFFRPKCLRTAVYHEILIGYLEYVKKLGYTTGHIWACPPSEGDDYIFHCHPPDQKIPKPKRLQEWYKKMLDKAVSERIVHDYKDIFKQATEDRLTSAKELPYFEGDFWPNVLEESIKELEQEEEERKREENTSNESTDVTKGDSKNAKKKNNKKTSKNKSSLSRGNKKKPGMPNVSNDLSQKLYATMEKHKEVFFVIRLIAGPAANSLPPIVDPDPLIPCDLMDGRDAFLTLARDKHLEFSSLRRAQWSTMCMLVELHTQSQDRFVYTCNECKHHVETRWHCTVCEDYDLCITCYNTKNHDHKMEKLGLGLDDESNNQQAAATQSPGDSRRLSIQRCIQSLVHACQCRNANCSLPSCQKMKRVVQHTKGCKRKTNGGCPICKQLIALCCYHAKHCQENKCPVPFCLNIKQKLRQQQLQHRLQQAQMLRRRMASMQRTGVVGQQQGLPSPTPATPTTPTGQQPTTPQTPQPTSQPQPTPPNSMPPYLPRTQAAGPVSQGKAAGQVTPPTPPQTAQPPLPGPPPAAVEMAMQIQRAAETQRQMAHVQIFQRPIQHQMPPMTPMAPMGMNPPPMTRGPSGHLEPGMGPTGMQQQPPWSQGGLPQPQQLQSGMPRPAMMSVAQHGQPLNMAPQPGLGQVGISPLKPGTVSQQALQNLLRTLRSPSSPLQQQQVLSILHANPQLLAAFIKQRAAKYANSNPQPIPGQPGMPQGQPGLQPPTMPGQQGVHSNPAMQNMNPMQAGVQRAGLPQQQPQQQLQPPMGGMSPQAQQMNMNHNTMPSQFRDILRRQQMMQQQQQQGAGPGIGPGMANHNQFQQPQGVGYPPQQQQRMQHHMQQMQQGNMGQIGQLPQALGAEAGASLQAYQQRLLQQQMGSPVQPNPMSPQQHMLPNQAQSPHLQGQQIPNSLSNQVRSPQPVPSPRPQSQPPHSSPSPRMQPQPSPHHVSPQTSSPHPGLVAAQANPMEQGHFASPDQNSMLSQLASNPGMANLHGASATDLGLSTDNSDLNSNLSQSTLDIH

Legend:
[1] = molecular target: T1, GST-SET8 N-terminal region (1-191 amino acids) (UniProt Q9NQR1); assay: pull-down; GST pull-down: lysates of transfected cells (48 h; TNTE buffer: 50 mM Tris-HCl pH 7.5, 150 mM NaCl, 1 mM EDTA, 0.5% Triton X-100) incubated with GST fusion proteins, anti-FLAG immunoblot; only the target purified
T1 sequence: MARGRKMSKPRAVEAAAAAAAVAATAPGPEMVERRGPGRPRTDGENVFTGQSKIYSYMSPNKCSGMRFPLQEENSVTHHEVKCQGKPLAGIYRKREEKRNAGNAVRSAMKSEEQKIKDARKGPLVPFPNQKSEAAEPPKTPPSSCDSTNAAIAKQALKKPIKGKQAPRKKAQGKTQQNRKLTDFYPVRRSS

FLAG-Smad3 (HEK293) = FLAG-Smad3 (HEK293) (UniProt P84022); assay: co-IP; HEK293 cells transfected with the indicated constructs, with or without SET8; after 24 h FLAG-Smad3 immunoprecipitated with anti-FLAG antibody, immunoblot
[2] = molecular target: endogenous Smad2 (human (endogenous in HepG2)) (UniProt Q15796); assay: co-IP; endogenous proteins; HepG2 cells with or without 100 pM TGF-β (30 min, 1.5 h); lysates immunoprecipitated with anti-Smad2/3 antibody, immunoblot
[3] = molecular target: endogenous Smad3 (human (endogenous in HepG2)) (UniProt P84022); assay: as above

“FLAG-Smad3 (HEK293) (from UniProt P84022 1-425)” was tested, and the binding [1] was “binds”.

For “p300 (from UniProt Q09472 1-2414) (enzyme)”, the binding (FLAG-Smad3 (HEK293)) was “binds”.

B1: endogenous SET8 (enzyme, UniProt Q9NQR1 1-393)
chain: MGEGGAAAALVAAAAAAAAAAAAVVAGQRRRRLGRRARCHGPGRAAGGKMSKPCAVEAAAAAVAATAPGPEMVERRGPGRPRTDGENVFTGQSKIYSYMSPNKCSGMRFPLQEENSVTHHEVKCQGKPLAGIYRKREEKRNAGNAVRSAMKSEEQKIKDARKGPLVPFPNQKSEAAEPPKTPPSSCDSTNAAIAKQALKKPIKGKQAPRKKAQGKTQQNRKLTDFYPVRRSSRKSKAELQSEERKRIDELIESGKEEGMKIDLIDGKGRGVIATKQFSRGDFVVEYHGDLIEITDAKKREALYAQDPSTGCYMYYFQYLSKTYCVDATRETNRLGRLINHSKCGNCQTKLHDIDGVPHLILIASRDIAAGEELLYDYGDRSKASIEAHPWLKH
For B1, the binding [2] was “binds” and the binding [3] was “binds”.
